Source: patent US20020004519A1, “METHOD FOR REDUCING CHLORIDE SECETION BY INTESTINAL EPITHLIAL CELLS IN SITU” (priority 1998, published 2002)
Where two headings read alike, the source gives them in different places.

Test system: T84 cells
Experiment: Electrogenic Cl- secretion (short circuit current, Isc) in confluent T84 monolayers
Assay type: cell-based
Conditions: Homo sapiens

## Clc1ccccc1C(c1ccccc1)(c1ccccc1)n1ccnc1 [clotrimazole]
T84, read-out: IC50 for inhibiting the secretory response to cholera toxin
  IC50: 10 µM
T84, VIP-stimulated monolayers, read-out: IC50 for inhibiting the secretory response to cAMP
  IC50: 8 µM
T84, carbachol 100 μM, monolayers initially stimulated with VIP, read-out: IC50 for inhibiting the secretory response to carbachol
  IC50: 3 µM
